For the test, the system named is P388 leukemia ip, CD2F1 mice, survival T/C. As to the kind of experiment: NCI In Vivo Anticancer Drug Screen. Data for tumor model P388 Leukemia (intraperitoneal) in CD2F1 (CDF1) mice. The settings on record: T/C endpoint: median survival time, higher T/C = longer survival.
The mark [1] stands for this setting: dose: 100.0 mg/kg/injection, schedule: Q01DX005 (ip), vehicle: Klucel (hydroxypropylcellulose) (HPC).
Setting [2] is: dose: 400.0 mg/kg/injection, schedule: Q04DX003 (ip), vehicle: saline with Tween-80.
The mark [3] stands for this setting: dose: 200.0 mg/kg/injection, schedule: Q04DX002 (ip), vehicle: saline with Tween-80.
Setting [4] is: dose: 200.0 mg/kg/injection, schedule: Q01DX009 (ip), vehicle: Klucel (hydroxypropylcellulose) (HPC).
Setting [5] is: dose: 200.0 mg/kg/injection, schedule: Q01DX005 (ip), vehicle: Klucel (hydroxypropylcellulose) (HPC).
Setting [6] is: dose: 100.0 mg/kg/injection, schedule: Q01DX005 (ip), vehicle: saline.
[7] abbreviates: dose: 200.0 mg/kg/injection, schedule: Q01DX009 (ip), vehicle: saline with Tween-80.
The mark [8] stands for this setting: dose: 6.25 mg/kg/injection, schedule: Q01DX009 (ip), vehicle: saline.

Results on 25 molecules are retold here after PubChem BioAssay AID330 (DTP/NCI, 2004).

SMILES strings stand for the structures. The list shows only some results of the screen, not a fair sample: it gathers tests that were run many times, whatever their T/C, doses with no T/C, and many T/C values between a quarter and a half above the control. Other doses and runs of a compound stand elsewhere. T/C gives the treated animals as a percentage of the vehicle group. Some doses have a count of surviving animals in place of a T/C: the source holds a T/C of zero for them, seemingly a mark for toxic or unscored doses. Some doses without a T/C left all or most animals alive at the check, yet need not have been tolerated: survival well below the control is almost never listed, so the zero probably covers shortened survival too. Survivors were counted at the toxicity check, usually on the fifth day, unless a day is given; later deaths do not show. Schedule codes are those of the source, taken here to give the interval after Q, in days (D) or hours (H), and the number of doses after X. For survival time, this PubChem deposit counts one and a half times the control or more as active, and values a quarter to a half above the control carry no call in these data; other NCI protocols may use other cut-offs. Some T/C values carry the count of animals alive at the toxicity check (mostly the fifth day); where none is given, no animal had died by that day. Some doses were run more than once; the values are given in rising order.

Regarding `COC(CCC(C)C1OC23CC(OC(=O)CC(C(C)O)OC(=O)CC(O)(O2)C(C)CC3(C)C)C1C)c1cccc(O)c1` (centres undefined), the survivor count (dose: 12.5 micrograms/kg/injection, schedule: Q01DX009 (ip), vehicle: saline + Tween-80 + alcohol) is on record as 6 of 6; the survivor count (dose: 25.0 micrograms/kg/injection, schedule: Q01DX009 (ip), vehicle: saline + Tween-80 + alcohol) is recorded as 6 of 6; the survivor count (dose: 50.0 micrograms/kg/injection, schedule: Q01DX009 (ip), vehicle: saline + Tween-80 + alcohol) was 6 of 6; the survivor count (dose: 50.0 micrograms/kg/injection, schedule: Q01DX009 (ip), vehicle: saline + alcohol) is on record as 5 of 6; the survivor count (dose: 100.0 micrograms/kg/injection, schedule: Q01DX009 (ip), vehicle: saline + alcohol) is listed as 6 of 6. For the same molecule, the T/C was 130 % of control (dose: 12.5 micrograms/kg/injection, schedule: Q01DX009 (ip), vehicle: saline + alcohol) and 141 % of control (dose: 25.0 micrograms/kg/injection, schedule: Q01DX009 (ip), vehicle: saline + alcohol).
On to `Cn1nnnc1-c1ccc(C(=O)O)cc1`, for which, under setting [1], the survivor count is 5 of 5.
On to `CCCCCC1(c2ccccc2)CCCC(C#N)C1=O` (centres undefined), for which, under setting [2], the survivor count is reported as 1 of 6.
In the case of `CSC(=S)/C(=C(/[O-])c1ccccc1)[n+]1cccc(C)c1`, the survivor count is given as 0 of 6 (dose: 50.0 mg/kg/injection, schedule: Q04DX002 (ip), vehicle: saline with Tween-80); 0 of 6 (dose: 100.0 mg/kg/injection, schedule: Q04DX002 (ip), vehicle: saline with Tween-80); 0 of 6 under setting [3].
Consider `CCCCCCSc1nc2ccc(NC(C)=O)cc2s1`, for which the survivor count under setting [4] is given as 6 of 6.
For `COc1ccc2c3c([nH]c2c1[N+](=O)[O-])C(C)NCC3` (centres undefined), the survivor count under setting [1] is listed as 0 of 6 and the survivor count under setting [5] was 0 of 6.
In the case of `NC(=O)c1nn(C2OC(CO)C(O)C2O)c2ncnc(N)c12` (centres undefined), the T/C (dose: 1.5 mg/kg/injection, schedule: Q01DX009 (ip), vehicle: Klucel (hydroxypropylcellulose) (HPC)) was 140 % of control.
For `COc1ccccc1NC(=O)N(CCCl)N=O`, the T/C reads like this: (dose: 1.5 mg/kg/injection, schedule: Q04DX003 (ip), vehicle: saline with Tween-80) 145 % of control; (dose: 25.0 mg/kg/injection, schedule: Q04DX003 (ip), vehicle: saline with Tween-80) 128 % of control.
In the case of `N=c1c2ncn(C3OC(CO)C(O)C3O)c2ncn1O` (centres undefined), the survivor count reads like this: under setting [6], 3 of 6; (dose: 200.0 mg/kg/injection, schedule: Q01DX005 (ip), vehicle: saline) 0 of 6.
For the molecule `S=c1[nH]ccs1`, the survivor count runs as follows: (dose: 100.0 mg/kg/injection, schedule: Q01DX009 (ip), vehicle: water) 2 of 6; (dose: 200.0 mg/kg/injection, schedule: Q01DX009 (ip), vehicle: water) 0 of 6.
In the case of `CC1(C)N=C(N)N=C(N)N1c1cccc(CCCCc2cccc(S(=O)(=O)F)c2)c1`, the T/C is 127 % of control (dose: 6.0 mg/kg/injection, schedule: Q04DX003 (ip), vehicle: saline with Tween-80); 131 % of control (dose: 9.0 mg/kg/injection, schedule: Q04DX003 (ip), vehicle: saline with Tween-80); 136 % of control (dose: 12.5 mg/kg/injection, schedule: Q04DX003 (ip), vehicle: saline with Tween-80).
As to `O=C(O)CC1OCC=C2CN3CCC45c6ccccc6NC4C1C2CC35` (centres undefined), the survivor count is, setting by setting: (dose: 3.75 mg/kg/injection, schedule: Q01DX005 (ip), vehicle: Klucel (hydroxypropylcellulose) (HPC)) 0 of 6; (dose: 7.5 mg/kg/injection, schedule: Q01DX005 (ip), vehicle: Klucel (hydroxypropylcellulose) (HPC)) 0 of 6; (dose: 15.0 mg/kg/injection, schedule: Q01DX005 (ip), vehicle: Klucel (hydroxypropylcellulose) (HPC)) 0 of 6; (dose: 30.0 mg/kg/injection, schedule: Q01DX005 (ip), vehicle: Klucel (hydroxypropylcellulose) (HPC)) 0 of 6; (dose: 60.0 mg/kg/injection, schedule: Q01DX005 (ip), vehicle: Klucel (hydroxypropylcellulose) (HPC)) 0 of 6; (dose: 60.0 mg/kg/injection, schedule: Q01DX005 (ip), vehicle: saline with Tween-80) 0 of 6. In addition, the survivor count (dose: 120.0 mg/kg/injection, schedule: Q01DX005 (ip), vehicle: Klucel (hydroxypropylcellulose) (HPC)) was 0 of 6; the survivor count (dose: 120.0 mg/kg/injection, schedule: Q01DX005 (ip), vehicle: saline with Tween-80) is listed as 0 of 6; the survivor count (dose: 240.0 mg/kg/injection, schedule: Q01DX005 (ip), vehicle: Klucel (hydroxypropylcellulose) (HPC)) is 0 of 6; the survivor count (dose: 240.0 mg/kg/injection, schedule: Q01DX005 (ip), vehicle: saline with Tween-80) was 0 of 6.
Regarding `CCCCCc1ccccc1O`, under setting [7], the survivor count was 1 of 6.
As to `COc1ccc(C(=O)N2C=CC(=Cc3ccccc3)C=C2)cc1`, the survivor count is given as 2 of 6 (dose: 50.0 mg/kg/injection, schedule: Q01DX009 (ip), vehicle: Klucel (hydroxypropylcellulose) (HPC)); 2 of 6 (dose: 100.0 mg/kg/injection, schedule: Q01DX009 (ip), vehicle: Klucel (hydroxypropylcellulose) (HPC)); 1 of 6 under setting [4].
With `O=c1[nH]oc(=O)[nH]1`, under setting [6], the survivor count is reported as 6 of 6.
Regarding `O=CNCc1ccc(S(=O)(=O)F)cc1`, the survivor count (dose: 200.0 mg/kg/injection, schedule: Q01DX009 (ip), vehicle: other) was 2 of 6.
Regarding `NC(=S)n1nc(-c2ccccc2)c(N=Nc2ccc([N+](=O)[O-])cc2)c1-c1ccccc1`, the survivor count under setting [3] is reported as 5 of 5.
Turning to `COc1ncc(Br)cc1C(=O)NCCc1ccc(S(=O)(=O)NC(=O)NC2CCCCC2)cc1`, under setting [7], the survivor count is given as 1 of 6.
Consider `CN(C)Cc1cccc[c]1[Sn]([CH3])([Br])[c]1ccccc1CN(C)C`, for which the T/C by setting is: under setting [8], 97 [5 of 6 alive], 100, 120 % of control; (dose: 12.5 mg/kg/injection, schedule: Q01DX009 (ip), vehicle: saline) 93, 100, 110, 130 % of control; (dose: 25.0 mg/kg/injection, schedule: Q01DX009 (ip), vehicle: saline) 95, 101, 114 [4 of 6 alive], 130 % of control. Moreover, the survivor count is recorded as 4 of 6 under setting [8]; 1 of 6 (dose: 50.0 mg/kg/injection, schedule: Q01DX009 (ip), vehicle: saline); 0 of 6 (dose: 100.0 mg/kg/injection, schedule: Q01DX009 (ip), vehicle: saline); 0 of 6 (dose: 200.0 mg/kg/injection, schedule: Q01DX009 (ip), vehicle: saline).
As for `COc1cccc2c1C(=O)c1c(O)c3c(c(O)c1C2=O)CC(O)(/C(C)=N/NC(=O)CCCCCCC(=O)N/N=C(\C)C1(O)Cc2c(O)c4c(c(O)c2C(OC2CC(N)C(O)C(C)O2)C1)C(=O)c1c(OC)cccc1C4=O)CC3OC1CC(N)C(O)C(C)O1` (centres undefined), the survivor count (dose: 32.0 mg/kg/injection, schedule: Q01DX009 (ip), vehicle: water) is listed as 3 of 3.
With `CC1(C)CC(C)(OC(=O)c2ccccc2Cl)N=N1` (centres undefined), where the note is “dose: 25.0 mg/kg/injection, schedule: Q01DX009 (ip), vehicle: other”, the T/C is 128 % of control.
As for `Nc1nc(N)c2cc(CNc3ccc(C(=O)NC(CC(=O)O)CC(=O)O)cc3)ccc2n1`, for the setting “dose: 50.0 mg/kg/injection, schedule: Q01DX009 (ip), vehicle: saline with Tween-80”, the T/C was 145 % of control. Besides, the survivor count (dose: 300.0 mg/kg/injection, schedule: Q01DX009 (ip), vehicle: saline with Tween-80) was 6 of 6.
In the case of `C1CCN(P(N2CCCCC2)N2CCCCC2)CC1`, the survivor count reads like this: (dose: 200.0 mg/kg/injection, schedule: Q04DX003 (ip), vehicle: saline with Tween-80) 5 of 6; under setting [2], 0 of 6.
On to `CCC(CC)COC(=O)c1ccccc1C(=O)OCC(CC)CC`, for which the T/C reads like this: (dose: 400.0 mg/kg/injection, schedule: Q01DX009 (ip), vehicle: saline with Tween-80) 132 and 148 % of control; (dose: 600.0 mg/kg/injection, schedule: Q01DX009 (ip), vehicle: saline with Tween-80) 128 % of control.
In the case of `O=C(CI)Nc1ccc2[nH]c(=O)cc(C(=O)O)c2c1`, the survivor count under setting [5] was 0 of 6.
